Results are given in words; binding and its absence hold for the method and conditions named. Binding seen in cells or lysates may run through a third protein. Some entries that bind do so weakly or less than the wild type.
Target: T1, C3aR (human (endogenous in iMG)) (UniProt Q16581)
T1 sequence: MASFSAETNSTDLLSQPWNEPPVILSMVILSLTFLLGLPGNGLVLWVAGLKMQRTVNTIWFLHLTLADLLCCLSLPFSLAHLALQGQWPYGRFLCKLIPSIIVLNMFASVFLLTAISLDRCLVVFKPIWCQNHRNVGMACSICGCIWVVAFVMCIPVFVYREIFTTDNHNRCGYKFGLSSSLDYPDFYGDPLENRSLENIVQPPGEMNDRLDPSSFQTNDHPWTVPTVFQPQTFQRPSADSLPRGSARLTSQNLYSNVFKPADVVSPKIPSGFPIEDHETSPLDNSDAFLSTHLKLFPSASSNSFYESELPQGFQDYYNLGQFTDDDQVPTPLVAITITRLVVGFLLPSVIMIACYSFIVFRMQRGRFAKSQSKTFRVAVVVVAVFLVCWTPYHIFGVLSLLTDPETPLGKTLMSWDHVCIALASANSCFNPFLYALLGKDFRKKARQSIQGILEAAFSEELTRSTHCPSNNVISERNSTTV
Assay: proximity ligation; matched ligand-receptor positive control on iMG; source of C3a and the antibodies not told; fluorescent puncta per cell

By UniProt entry, the sequences of proteins in these tests, tags left out. Residues count along the entry.
UniProt P01024, residues 672-748: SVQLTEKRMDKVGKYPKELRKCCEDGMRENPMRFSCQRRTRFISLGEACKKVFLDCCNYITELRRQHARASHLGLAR

binding: binds
Substance: C3a (from UniProt P01024 672-748) (ligand)

From PMC13483542
